Data on 1 sequence can be found in publication PMC11363328.

The chains behind the UniProt entries cited, without tags or fusion partners.
UniProt P60842, whole entry: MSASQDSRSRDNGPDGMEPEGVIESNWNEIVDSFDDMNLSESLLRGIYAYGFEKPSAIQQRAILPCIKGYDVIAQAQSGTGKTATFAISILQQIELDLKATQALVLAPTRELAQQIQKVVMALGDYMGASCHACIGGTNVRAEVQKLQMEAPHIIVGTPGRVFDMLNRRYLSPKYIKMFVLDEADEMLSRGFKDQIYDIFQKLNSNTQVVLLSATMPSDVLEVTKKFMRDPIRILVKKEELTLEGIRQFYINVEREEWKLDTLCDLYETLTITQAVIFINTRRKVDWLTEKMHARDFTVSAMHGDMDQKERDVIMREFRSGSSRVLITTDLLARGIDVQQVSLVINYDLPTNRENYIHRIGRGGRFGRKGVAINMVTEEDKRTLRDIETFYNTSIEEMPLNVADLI

The test system of data set [1] is DDX3X. The experiment in a line: fluorescence polarization. The note with it: 1 mM MgCl2, 14.4% glycerol, 0.1% DMSO, 2 mM DTT, 10 nM probe, room temperature, 10 min, recombinant protein.
The next data set deals with eIF4A1 (UniProt P60842). Nature of the data set: fluorescence polarization. The note with it: 1 mM ADP+Pi with 10 uM (-)-5, (-)-7 or (-)-20, ATP needed to enhance anisotropy change; FP: 14.4 mM HEPES-KOH pH 8, 108 mM NaCl, 1 mM MgCl2, 14.4% glycerol, 0.1% DMSO, 2 mM DTT, 1 mM ATP, 10 nM probe, room temperature, 10 min; recombinant protein.
In data set [2] the test system is DDX3X. The experiment in a line: fluorescence polarization, protein titration. Conditions: FP: 14.4 mM HEPES-KOH pH 8, 108 mM NaCl, 1 mM MgCl2, 14.4% glycerol, 0.1% DMSO, 2 mM DTT, 10 nM probe, room temperature, 10 min, recombinant protein.

For at least one entry, the source does not settle the construct or the ends of the probe. The comparison behind a weaker result is the experiment's own reference, which may not be listed here. For some of these results: At least one verdict rests on a figure or table, not on a statement of the authors.

As to AGAGAGAGAGAGAGAG [FAM-r(AG)8], the binding result is listed as “binds more weakly” with DDX3X [1] (10 uM (-)-5, 1 mM ATP, 1.5 uM protein, less than (-)-7 and (-)-20, FP: 14.4 mM HEPES-KOH pH 8, 108 mM NaCl); “binds” in the data set with DDX3X [1] (10 uM (-)-7, 1 mM ATP, 1.5 uM protein, FP: 14.4 mM HEPES-KOH pH 8, 108 mM NaCl); “binds” in the data set with DDX3X [1] (10 uM (-)-20, 1 mM ATP, 1.5 uM protein, FP: 14.4 mM HEPES-KOH pH 8, 108 mM NaCl); “binds more weakly” in the data set on DDX3X [1] (1 mM ADP+Pi with 10 uM (-)-5, (-)-7 or (-)-20, ATP needed to enhance anisotropy change, FP: 14.4 mM HEPES-KOH pH 8, 108 mM NaCl, 1 mM ATP); “binds more weakly” in the data set with eIF4A1; “binds more weakly” with DDX3X [2] (50 uM (-)-5, 1 mM ATP, significantly less efficacious). The binding result with DDX3X [2] (50 uM (-)-7, 1 mM ATP, strongest stimulation) is “binds”.
